Experimental data taken from publication doi:10.1101/2020.11.04.368498.
These are yes or no findings as the source states them, for the method shown. Some entries that bind do so weakly or less than the wild type. Sequences can lack the tags named with a protein.

By UniProt entry, the sequences of proteins in these tests, tags left out.
UniProt P06748: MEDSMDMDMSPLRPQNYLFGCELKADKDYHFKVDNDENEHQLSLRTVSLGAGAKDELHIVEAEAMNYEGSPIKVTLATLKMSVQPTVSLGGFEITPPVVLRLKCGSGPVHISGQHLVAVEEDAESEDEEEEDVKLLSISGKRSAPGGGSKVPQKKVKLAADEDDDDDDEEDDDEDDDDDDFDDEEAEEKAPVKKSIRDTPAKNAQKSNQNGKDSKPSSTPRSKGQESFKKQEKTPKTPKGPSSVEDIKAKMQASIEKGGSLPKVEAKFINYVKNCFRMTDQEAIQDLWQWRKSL

Target: T1, HIS-tagged Aurora-A (UniProt O14965)
T1 sequence: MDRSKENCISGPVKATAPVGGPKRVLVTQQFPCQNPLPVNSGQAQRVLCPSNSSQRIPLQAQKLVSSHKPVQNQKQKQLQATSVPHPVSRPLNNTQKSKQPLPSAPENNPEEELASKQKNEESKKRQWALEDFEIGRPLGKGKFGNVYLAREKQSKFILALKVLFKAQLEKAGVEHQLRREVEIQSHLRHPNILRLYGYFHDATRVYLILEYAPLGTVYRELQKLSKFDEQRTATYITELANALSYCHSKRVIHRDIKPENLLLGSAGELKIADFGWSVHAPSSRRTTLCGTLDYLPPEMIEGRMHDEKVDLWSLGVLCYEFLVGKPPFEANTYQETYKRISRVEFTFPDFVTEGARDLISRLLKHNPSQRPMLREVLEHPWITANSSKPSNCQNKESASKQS
Experiment: pull-down

NPM (from UniProt P06748 1-294)
binding: binds
